Data: publication PMC11925928
Results are given in words; binding and its absence hold for the method and conditions named. In cells and extracts the contact can be indirect. A yes stands for co-enrichment or nearness to the bait. Other partners may have been found.

How the values were obtained:
[1] = molecular target: Cellular tumor antigen p53 (human (endogenous in HCT116)) (UniProt P04637); assay: affinity purification with mass spectrometry; TF-chRDP: HCT116 cells (375 uM 5-FU for 9 h to activate p53; DMSO as control) dual cross-linked with 1% formaldehyde and 2 mM EGS; nuclei sonicated; endogenous p53 chromatin complexes immunoprecipitated overnight at 4°C with anti-p53 (sc-126) on Protein G beads; low salt, high salt and TE washes; on-bead trypsin digestion; nano LC-MS/MS, MaxQuant
[2] = molecular target: Cellular tumor antigen p53 (human (endogenous in HCT116)), P04637; assay: as above; conditions: remark: other sources report otherwise

| binding [1] | binding [2] | Binder |
| --- | --- | --- |
| binds |  | Heterogeneous nuclear ribonucleoprotein M (protein, UniProt P52272 1-730) MAAGVEAAAEVAATEIKMEEESGAPGVPSGNGAPGPKGEGERPAQNEKRKEKNIKRGGNRFEPYANPTKRYRAFITNIPFDVKWQSLKDLVKEKVGEVTYVELLMDAEGKSRGCAVVEFKMEESMKKAAEVLNKHSLSGRPLKVKEDPDGEHARRAMQKVMATTGGMGMGPGGPGMITIPPSILNNPNIPNEIIHALQAGRLGSTVFVANLDYKVGWKKLKEVFSMAGVVVRADILEDKDGKSRGIGTVTFEQSIEAVQAISMFNGQLLFDRPMHVKMDERALPKGDFFPPERPQQLPHGLGGIGMGLGPGGQPIDANHLNKGIGMGNIGPAGMGMEGIGFGINKMGGMEGPFGGGMENMGRFGSGMNMGRINEILSNALKRGEIIAKQGGGGGGGSVPGIERMGPGIDRLGGAGMERMGAGLGHGMDRVGSEIERMGLVMDRMGSVERMGSGIERMGPLGLDHMASSIERMGQTMERIGSGVERMGAGMGFGLERMAAPIDRVGQTIERMGSGVERMGPAIERMGLSMERMVPAGMGAGLERMGPVMDRMATGLERMGANNLERMGLERMGANSLERMGLERMGANSLERMGPAMGPALGAGIERMGLAMGGGGGASFDRAIEMERGNFGGSFAGSFGGAGGHAPGVARKACQIFVRNLPFDFTWKMLKDKFNECGHVLYADIKMENGKSKGCGVVKFESPEVAERACRMMNGMKLSGREIDVRIDRNA |
|  | binds | TRIM28, Q13263 1-835 (protein) MAASAAAASAAAASAASGSPGPGEGSAGGEKRSTAPSAAASASASAAASSPAGGGAEALELLEHCGVCRERLRPEREPRLLPCLHSACSACLGPAAPAAANSSGDGGAAGDGTVVDCPVCKQQCFSKDIVENYFMRDSGSKAATDAQDANQCCTSCEDNAPATSYCVECSEPLCETCVEAHQRVKYTKDHTVRSTGPAKSRDGERTVYCNVHKHEPLVLFCESCDTLTCRDCQLNAHKDHQYQFLEDAVRNQRKLLASLVKRLGDKHATLQKSTKEVRSSIRQVSDVQKRVQVDVKMAILQIMKELNKRGRVLVNDAQKVTEGQQERLERQHWTMTKIQKHQEHILRFASWALESDNNTALLLSKKLIYFQLHRALKMIVDPVEPHGEMKFQWDLNAWTKSAEAFGKIVAERPGTNSTGPAPMAPPRAPGPLSKQGSGSSQPMEVQEGYGFGSGDDPYSSAEPHVSGVKRSRSGEGEVSGLMRKVPRVSLERLDLDLTADSQPPVFKVFPGSTTEDYNLIVIERGAAAAATGQPGTAPAGTPGAPPLAGMAIVKEEETEAAIGAPPTATEGPETKPVLMALAEGPGAEGPRLASPSGSTSSGLEVVAPEGTSAPGGGPGTLDDSATICRVCQKPGDLVMCNQCEFCFHLDCHLPALQDVPGEEWSCSLCHVLPDLKEEDGSLSLDGADSTGVVAKLSPANQRKCERVLLALFCHEPCRPLHQLATDSTFSLDQPGGTLDLTLIRARLQEKLSPPYSSPQEFAQDVGRMFKQFNKLTEDKADVQSIIGLQRFFETRMNEAFGDTKFSAVLVEPPPMSLPGAGLSSQELSGGPGDGP |
